AC50 data for 53 compounds are collected here from PubChem BioAssay AID1487 (National Center for Advancing Translational Sciences (NCATS), 2009).

This assay can be described thus: qHTS Assay for Modulators of Lamin A Splicing. The settings on record: HeLa LMNA splicing GFP/RFP minigene ratio, 48 h. An outline of the steps:
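S3 HeLa cells stably expressing lamin A-EGFP splicing minigene plus DsRed2, 600 cells/well, 48 h compound exposure at 37C. Laser-scanning cytometry; analysed as GFP (500-530 nm)/RFP (575-640 nm) total intensity ratio; 0.5% DMSO vehicle.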
A general note: Quantitative high-throughput screening tests each substance at several concentrations.

[1] abbreviates: measured here: GFP splicing reporter channel.
The mark [2] stands for this setting: measured here: RFP viability control channel.

Several values for one entry are separate records, joined by “and”; a condition that tells them apart may be missing. Identical values can stand only once. Some of the results follow. Further columns of the screen follow, without active or inactive calls. The list favours compounds with an active or inconclusive main result. The note in brackets gives the kind of curve behind each potency; many fits are weak.

The term AC50 denotes the midpoint of the concentration-response curve, whichever way the signal moves. Turning to `COc1ccccc1CNC(=O)c1sc2nc3n(c(=O)c2c1C)CCC3`, the AC50 by setting is: under setting [1], 7.94 µM [rising, partial curve, poor fit]; under setting [2], 7.94 µM [rising, partial curve, poor fit]. As to `O=C(Nc1ccccc1C(=O)N1CCCCCC1)c1ccccc1Cl`, the AC50 under setting [2] is 0.316 µM [rising, partial curve, poor fit].

Take `COc1ccc(C(=O)Nc2nc3ccccc3[nH]2)cc1S(=O)(=O)N1CCOCC1`: the AC50 under setting [1] was 0.00316 µM [falling, full curve, poor fit]. Turning to `Cc1ccc(-c2cc3nc(-c4ccccc4)cc(N4CCC5(CC4)OCCO5)n3n2)cc1`, the AC50 under setting [2] was 35.5 µM [rising, single point]. As for `Fc1ccccc1COc1cccc(/C=N/n2cnnc2)c1`, the AC50 runs as follows: under setting [1], 11.2 µM [rising, partial curve]; under setting [2], 25.1 µM [rising, single point]. For the compound `Cc1ccccc1-n1ncc(C(C)NC(=O)c2ccco2)c1C` (configuration not stated), the concentration at half-maximal activity (AC50) runs as follows: under setting [1], 2 µM [falling, full curve, poor fit]; under setting [2], 12.6 µM [falling, partial curve]. Consider `CCOc1cc(-c2noc(CCC(=O)Nc3cccnc3)n2)ccc1OC`, for which the AC50 is 1.12 µM [rising, partial curve] under setting [1] and 12.6 µM [rising, partial curve] under setting [2]. In the case of `COc1ncc2nc(-c3ccc(F)cc3)c(=O)n(Cc3cccs3)c2n1`, the AC50 under setting [1] is 12.6 µM [falling, partial curve] and the half-maximal activity concentration (AC50) under setting [2] is 22.4 µM [falling, partial curve]. Take `O=C(Nc1nc(-c2ccccn2)cs1)c1cc(Cl)ccc1[N+](=O)[O-]`: the concentration at half-maximal activity (AC50) under setting [1] was 4.47 µM [rising, full curve, poor fit] and the AC50 under setting [2] is 14.1 µM [rising, partial curve, poor fit]. Regarding `COc1ccc(-n2cnc3cc(NS(=O)(=O)c4ccccc4)ccc32)cc1`, the AC50 under setting [2] was 12.6 µM [rising, partial curve, poor fit]. With `Cn1c(NC(=O)c2ccco2)c(-c2ccccc2Cl)c(=O)c2ccccc21`, the AC50 under setting [2] was 31.6 µM [rising, single point]. Regarding `N#CCCCn1c(=O)oc2ccccc21`, under setting [1], the half-maximal activity concentration (AC50) was 15.8 µM [falling, single point]. Take `COc1ccc2oc(=O)c(C(=O)N3CCN(c4ccc(F)cc4)CC3)cc2c1`: the half-maximal activity concentration (AC50) under setting [1] is 12.6 µM [rising, single point] and the concentration at half-maximal activity (AC50) under setting [2] was 17.8 µM [rising, single point].

Regarding `CNc1nn(-c2cccc(Cl)c2)nc1N`, under setting [2], the AC50 was 14.1 µM [rising, single point].

For the compound `CC1=C(C(=O)OCc2ccccc2)C(c2ccc(C(F)(F)F)cc2)NC(=O)N1CCCCCC(=O)O` (configuration not stated), the AC50 under setting [1] was 35.5 µM [rising, single point]. Turning to `CCCNc1nc(N2CCCC2)nc(N2CCCC2)n1`, the AC50 under setting [1] is 0.00891 µM [falling, full curve] and the concentration at half-maximal activity (AC50) under setting [2] is 0.00891 µM [falling, full curve, poor fit]. `Cc1cc(C(=O)NNC(=O)CCN2CCN(c3ccccc3)CC2)c2ccccc2n1`: the AC50 under setting [1] was 6.31 µM [falling, single point] and the AC50 under setting [2] is 6.31 µM [falling, partial curve].

Turning to `CSc1ccc(CCNC(=O)c2ccc(-n3c(C)cc4c3CCCC4)cc2)cc1`, under setting [2], the AC50 was 12.6 µM [falling, partial curve, poor fit]. As for `C/C(=N\NC(=O)CNc1cccc(Cl)c1C)C1CC1`, under setting [2], the half-maximal activity concentration (AC50) is 0.00891 µM [falling, full curve, poor fit]. Consider `CC(=O)Nc1ccc(S(=O)(=O)N2CCN(CC3CC4C=CC3C4)CC2)cc1` (configuration not stated), for which the half-maximal activity concentration (AC50) was 0.316 µM [falling, full curve, poor fit] under setting [1] and 0.562 µM [falling, full curve] under setting [2]. For `Cc1[nH]n(-c2ccccc2)c(=O)c1/C=N/NC(=O)c1cccc([N+](=O)[O-])c1`, the half-maximal activity concentration (AC50) was 5.62 µM [rising, single point] under setting [1] and 5.62 µM [rising, single point] under setting [2]. Turning to `O=C(COCc1cc(-c2ccc3c(c2)OCO3)on1)NCc1ccc(F)cc1`, the AC50 under setting [1] is 35.5 µM [rising, single point] and the AC50 under setting [2] is 14.1 µM [rising, single point]. Take `O=C(NCCn1cc(SCc2ccccc2)c2ccccc21)c1ccccc1F`: the AC50 under setting [2] was 20 µM [rising, single point]. Consider `COc1cccc(-c2nc(=S)c3c(n2Cc2ccco2)CCCC3)c1`, for which the AC50 under setting [1] was 17.8 µM [rising, single point]. As to `FC(F)(F)c1cccc(NC(=S)NCCN2CCOCC2)c1`, the AC50 under setting [1] is 0.0891 µM [rising, full curve, poor fit] and the half-maximal activity concentration (AC50) under setting [2] is 0.316 µM [rising, single point]. With `CC(C)c1cc(C(=O)OCC(=O)NC(=O)NCc2ccco2)c(O)c(C(C)C)c1`, the half-maximal activity concentration (AC50) is 12.6 µM [falling, single point] under setting [1] and 15.8 µM [falling, single point] under setting [2]. Take `CSc1nc(N(C)NC(=O)c2ccc(F)cc2)c2ccccc2n1`: under setting [2], the AC50 is 4.47 µM [rising, partial curve]. As to `O=C(Nc1ccccc1C(=O)OCC(=O)c1c[nH]c2ccccc12)c1ccco1`, the half-maximal activity concentration (AC50) under setting [2] was 11.2 µM [rising, partial curve].

As to `CCOC(=O)CCS(=O)(=O)c1nc(-c2ccccc2)cc(C(F)(F)F)n1`, the concentration at half-maximal activity (AC50) under setting [2] is 14.1 µM [rising, partial curve]. On to `Nc1nnnn1NCc1cccc(OCc2ccccc2)c1`, for which the AC50 reads like this: under setting [1], 17.8 µM [rising, partial curve, poor fit]; under setting [2], 25.1 µM [rising, single point]. `CCC(C)NC(=O)c1ccc2nc(Cc3ccccc3)oc2c1` (configuration not stated): the AC50 is 3.98 µM [falling, full curve] under setting [1] and 3.98 µM [falling, full curve, poor fit] under setting [2]. Consider `COc1ccc(-c2nc3scc(CCNC(=O)Cc4ccc(F)cc4)n3n2)cc1`, for which the AC50 under setting [1] was 0.794 µM [rising, full curve, poor fit]. On to `COc1cccc(C(=O)c2cc3ccc(O)cc3oc2=O)c1`, for which the concentration at half-maximal activity (AC50) under setting [1] is 35.5 µM [rising, single point] and the AC50 under setting [2] was 20 µM [rising, single point]. In the case of `CCOC(=O)Cc1csc(NC(=S)NC(=O)c2ccc(Cl)cc2)n1`, the concentration at half-maximal activity (AC50) under setting [2] was 20 µM [falling, partial curve]. With `O=C(Nc1cc(Cl)cc(Cl)c1)c1ccc(F)c(S(=O)(=O)NCc2ccccc2Cl)c1`, under setting [2], the concentration at half-maximal activity (AC50) is 31.6 µM [falling, partial curve, poor fit].

`CCN(CC)P(=O)(/C(Cl)=C\Nc1c(C)n(C)n(-c2ccccc2)c1=O)N(CC)CC`: the AC50 under setting [2] was 0.398 µM [falling, full curve, poor fit]. Regarding `COCCCN=C(c1ccco1)n1c(=S)nc(-c2ccco2)n(CCCOC)c1=S`, the concentration at half-maximal activity (AC50) is 3.55 µM [rising, single point] under setting [1] and 3.55 µM [rising, partial curve, poor fit] under setting [2]. Consider `O=C(NNS(=O)(=O)c1ccc2ccccc2c1)c1cc(-c2ccccn2)nc2ccccc12`, for which the AC50 under setting [2] was 7.94 µM [rising, partial curve]. On to `Cc1ccc(-n2ncc(C(=O)Nc3c(Cl)cccc3Cl)c2C2CCNCC2)cc1`, for which the AC50 under setting [1] is 2.51 µM [falling, full curve, poor fit]. As for `Cn1ccnc1Sc1cc(Cl)ccc1[N+](=O)[O-]`, the AC50 under setting [2] was 11.2 µM [rising, partial curve, poor fit]. For the compound `COc1ccc(OCCn2c(=O)sc3ccccc32)cc1`, the concentration at half-maximal activity (AC50) under setting [1] is 5.62 µM [rising, partial curve].

`O=[N+]([O-])c1ccc(/C=C/c2nc3ccc([N+](=O)[O-])cc3[nH]2)cc1`: the concentration at half-maximal activity (AC50) under setting [2] is 5.62 µM [rising, single point].

`COc1ccccc1OCC(O)CN1CCN(CC(=O)Nc2c(C)cccc2C)CC1` (configuration not stated): the AC50 is 2.51 µM [rising, partial curve, poor fit] under setting [1]; 0.794 nM [rising, full curve, poor fit] and 6.31 µM [falling, single point] under setting [2].

As for `COc1ccc(N(C(=O)C(C)C)S(=O)(=O)c2cccc([N+](=O)[O-])c2)cc1`, the AC50 under setting [1] is 0.0316 µM [falling, full curve, poor fit].

Turning to `COc1ccc(C(=O)CSc2ccc(-c3ccccc3)nn2)cc1`, the AC50 under setting [2] was 11.2 µM [rising, single point]. Take `Cc1ccc(NC(=O)C(C)c2cccc(C(=O)c3ccccc3)c2)cc1O` (configuration not stated): the concentration at half-maximal activity (AC50) by setting is: under setting [1], 0.112 µM [rising, full curve]; under setting [2], 3.98 µM [rising, full curve]. For `COCC(=O)Nc1nnc(CCc2ccccc2)s1`, the half-maximal activity concentration (AC50) by setting is: under setting [1], 3.16 µM [falling, partial curve]; under setting [2], 2.82 µM [falling, partial curve, poor fit]. In the case of `Cc1ccc(N2CC(NC(=O)C3CCCCC3)CC2=O)cc1C` (configuration not stated), the AC50 is 3.16 µM [falling, partial curve, poor fit] under setting [1] and 6.31 µM [falling, full curve, poor fit] under setting [2]. Take `COc1ccc(C2OC(=O)CC2C(=O)NC(C)C)cc1` (configuration not stated): the half-maximal activity concentration (AC50) by setting is: under setting [1], 0.398 µM [falling, single point]; under setting [2], 0.631 µM [falling, full curve, poor fit]. `COc1ccc(CC(=O)NNc2ncnc3c2cnn3-c2ccc(C)cc2)cc1`: the concentration at half-maximal activity (AC50) under setting [2] is 22.4 µM [rising, single point]. Same read-out and setting: with `O=S(=O)(Nc1ccccc1)c1ccc(Oc2ncc(C(F)(F)F)cc2Cl)cc1` the figure was 17.8 µM [rising, single point]; with `Cc1ccc(S(=O)(=O)N2CCN(C(=O)CSC3CCCC3)CC2)c(C)c1`, 28.2 µM [rising, single point].

`CCCN(CCC)CC(O)Cn1cc(/C=C/C(=O)c2cccs2)c2ccccc21` (configuration not stated): the concentration at half-maximal activity (AC50) was 15.8 µM [falling, single point] under setting [1] and 15.8 µM [falling, single point] under setting [2].
